The results in this text go back to paper doi:10.1101/2023.01.13.523841.

These are yes or no findings as the source states them, for the method shown. Binding seen in cells or lysates may run through a third protein. Binding can be weak; no strength is given. Sequences can lack the tags named with a protein.

For the assay, the target named is FUG1, BiFC fusion in pUC-SPYCE (cYFP-X) (Arabidopsis thaliana). Description: split reporter.

B1: ALFIN LIKE 3 (AL3), BiFC fusion in pUC-SPYNE (nYFP-X) (protein, UniProt Q9M2B4 1-250)
chain: MEGGAALYNPRTVEEVFKDFKGRRTAIVKALTTDVQEFYQQCDPEKENLCLYGLPNEEWEVNLPAEEVPPELPEPALGINFARDGLSEKEWLSLVAIHSDAWLLSVSFYFGSRFSFHKEERKRLFNMINDVPTIFEVVTGMAKAKDKSSAANQNGNKSKSNSKVRTSEGKSSKTKQPKEEDEEIDEDDEDDHGETLCGACGDSDGADEFWICCDLCEKWFHGKCVKITPARAEHIKQYKCPSCSNKRARA
As for B1, the binding result is listed as “binds”.
